# Experimental data from the supplement of paper PMC12819154, “High-throughput peptide-centric local stability assay extends protein–ligand identification to membrane proteins, tissues and bacteria” (Nature Structural & Molecular Biology, 2025).
# Sequences of proteins named here, by UniProt entry; tags and fusion partners are left off. A change or cut given only in a name is not applied to a line headed by its entry.
# UniProt Q14964: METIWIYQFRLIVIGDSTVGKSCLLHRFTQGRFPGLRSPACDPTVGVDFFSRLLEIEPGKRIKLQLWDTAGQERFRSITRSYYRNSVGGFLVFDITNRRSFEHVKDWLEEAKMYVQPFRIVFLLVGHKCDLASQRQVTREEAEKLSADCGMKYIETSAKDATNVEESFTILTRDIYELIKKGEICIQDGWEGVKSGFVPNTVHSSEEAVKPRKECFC
# UniProt Q13443: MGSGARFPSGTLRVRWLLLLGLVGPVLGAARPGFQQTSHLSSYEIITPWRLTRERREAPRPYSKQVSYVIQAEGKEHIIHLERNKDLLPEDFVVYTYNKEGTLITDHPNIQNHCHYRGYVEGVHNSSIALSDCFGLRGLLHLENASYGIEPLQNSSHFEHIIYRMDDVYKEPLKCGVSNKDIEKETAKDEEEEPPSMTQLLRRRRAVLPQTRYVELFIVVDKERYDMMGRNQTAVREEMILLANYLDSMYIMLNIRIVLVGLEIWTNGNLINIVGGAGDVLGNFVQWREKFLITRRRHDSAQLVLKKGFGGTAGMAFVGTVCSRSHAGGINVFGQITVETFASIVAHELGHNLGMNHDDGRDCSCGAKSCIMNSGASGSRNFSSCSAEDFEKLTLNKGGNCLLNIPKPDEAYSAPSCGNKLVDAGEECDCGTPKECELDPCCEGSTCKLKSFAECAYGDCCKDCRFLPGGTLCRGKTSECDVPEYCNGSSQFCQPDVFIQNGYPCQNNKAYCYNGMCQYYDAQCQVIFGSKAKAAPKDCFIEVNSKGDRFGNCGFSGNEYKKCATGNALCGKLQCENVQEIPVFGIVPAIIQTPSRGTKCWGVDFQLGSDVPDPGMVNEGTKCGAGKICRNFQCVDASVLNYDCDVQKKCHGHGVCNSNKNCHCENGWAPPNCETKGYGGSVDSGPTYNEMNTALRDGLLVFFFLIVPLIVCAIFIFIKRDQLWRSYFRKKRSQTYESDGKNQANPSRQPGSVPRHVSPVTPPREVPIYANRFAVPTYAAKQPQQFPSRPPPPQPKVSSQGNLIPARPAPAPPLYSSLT
# UniProt Q13480: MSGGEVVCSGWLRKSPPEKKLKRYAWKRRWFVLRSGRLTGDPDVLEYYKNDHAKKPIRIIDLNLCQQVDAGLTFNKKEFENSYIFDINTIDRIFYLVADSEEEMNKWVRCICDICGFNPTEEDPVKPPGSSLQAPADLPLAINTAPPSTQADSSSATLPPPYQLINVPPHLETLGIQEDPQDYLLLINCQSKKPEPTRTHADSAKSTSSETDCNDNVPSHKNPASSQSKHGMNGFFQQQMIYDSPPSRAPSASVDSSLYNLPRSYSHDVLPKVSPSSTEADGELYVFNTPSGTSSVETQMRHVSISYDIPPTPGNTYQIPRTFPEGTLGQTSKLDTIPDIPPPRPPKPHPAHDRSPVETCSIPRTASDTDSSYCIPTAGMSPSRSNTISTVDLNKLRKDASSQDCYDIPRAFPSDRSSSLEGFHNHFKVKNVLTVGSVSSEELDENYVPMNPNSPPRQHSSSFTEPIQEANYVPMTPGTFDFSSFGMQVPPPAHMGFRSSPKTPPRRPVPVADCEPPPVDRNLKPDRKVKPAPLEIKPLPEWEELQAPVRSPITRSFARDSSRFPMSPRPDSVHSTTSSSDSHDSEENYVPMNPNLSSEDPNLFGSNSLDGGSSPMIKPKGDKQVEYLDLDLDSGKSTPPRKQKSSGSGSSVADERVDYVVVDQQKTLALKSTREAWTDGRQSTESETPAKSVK
# UniProt Q14146: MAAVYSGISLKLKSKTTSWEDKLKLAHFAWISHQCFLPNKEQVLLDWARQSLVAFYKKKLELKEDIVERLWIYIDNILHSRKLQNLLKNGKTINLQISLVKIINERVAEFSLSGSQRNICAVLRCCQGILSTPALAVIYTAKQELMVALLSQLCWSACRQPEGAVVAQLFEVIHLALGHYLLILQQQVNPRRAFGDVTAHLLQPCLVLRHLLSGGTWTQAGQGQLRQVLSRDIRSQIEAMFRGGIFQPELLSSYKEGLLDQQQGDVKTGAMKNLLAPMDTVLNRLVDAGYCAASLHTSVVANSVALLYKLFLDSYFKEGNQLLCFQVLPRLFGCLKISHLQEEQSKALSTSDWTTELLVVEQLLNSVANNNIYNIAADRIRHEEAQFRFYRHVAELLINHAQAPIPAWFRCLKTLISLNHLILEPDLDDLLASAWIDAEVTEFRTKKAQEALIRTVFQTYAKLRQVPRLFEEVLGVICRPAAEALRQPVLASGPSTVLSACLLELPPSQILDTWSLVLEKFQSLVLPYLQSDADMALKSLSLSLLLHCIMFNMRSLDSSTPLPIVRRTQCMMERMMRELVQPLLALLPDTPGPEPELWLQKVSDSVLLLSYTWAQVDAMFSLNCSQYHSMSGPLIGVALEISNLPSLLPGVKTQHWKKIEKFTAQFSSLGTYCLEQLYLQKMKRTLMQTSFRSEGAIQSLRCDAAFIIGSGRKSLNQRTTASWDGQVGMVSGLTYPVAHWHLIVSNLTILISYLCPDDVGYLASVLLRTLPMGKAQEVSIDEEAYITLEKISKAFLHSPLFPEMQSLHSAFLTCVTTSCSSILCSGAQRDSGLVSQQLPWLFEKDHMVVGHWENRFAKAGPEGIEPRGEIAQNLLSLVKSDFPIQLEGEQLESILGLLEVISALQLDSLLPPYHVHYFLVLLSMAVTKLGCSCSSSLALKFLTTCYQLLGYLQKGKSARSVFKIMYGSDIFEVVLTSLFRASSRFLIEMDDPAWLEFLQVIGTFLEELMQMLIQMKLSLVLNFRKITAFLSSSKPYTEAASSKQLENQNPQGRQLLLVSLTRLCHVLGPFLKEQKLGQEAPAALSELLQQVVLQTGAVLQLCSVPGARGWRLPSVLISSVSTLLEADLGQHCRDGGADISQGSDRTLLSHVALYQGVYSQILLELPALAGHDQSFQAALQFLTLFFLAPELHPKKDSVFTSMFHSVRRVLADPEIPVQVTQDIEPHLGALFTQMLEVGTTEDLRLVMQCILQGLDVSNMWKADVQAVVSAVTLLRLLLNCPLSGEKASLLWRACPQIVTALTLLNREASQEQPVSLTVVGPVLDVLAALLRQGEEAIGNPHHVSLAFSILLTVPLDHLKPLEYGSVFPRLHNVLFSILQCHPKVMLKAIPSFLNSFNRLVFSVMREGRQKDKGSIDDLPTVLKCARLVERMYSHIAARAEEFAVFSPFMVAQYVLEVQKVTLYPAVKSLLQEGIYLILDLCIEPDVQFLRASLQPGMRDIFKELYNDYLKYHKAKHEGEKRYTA
# UniProt Q13625: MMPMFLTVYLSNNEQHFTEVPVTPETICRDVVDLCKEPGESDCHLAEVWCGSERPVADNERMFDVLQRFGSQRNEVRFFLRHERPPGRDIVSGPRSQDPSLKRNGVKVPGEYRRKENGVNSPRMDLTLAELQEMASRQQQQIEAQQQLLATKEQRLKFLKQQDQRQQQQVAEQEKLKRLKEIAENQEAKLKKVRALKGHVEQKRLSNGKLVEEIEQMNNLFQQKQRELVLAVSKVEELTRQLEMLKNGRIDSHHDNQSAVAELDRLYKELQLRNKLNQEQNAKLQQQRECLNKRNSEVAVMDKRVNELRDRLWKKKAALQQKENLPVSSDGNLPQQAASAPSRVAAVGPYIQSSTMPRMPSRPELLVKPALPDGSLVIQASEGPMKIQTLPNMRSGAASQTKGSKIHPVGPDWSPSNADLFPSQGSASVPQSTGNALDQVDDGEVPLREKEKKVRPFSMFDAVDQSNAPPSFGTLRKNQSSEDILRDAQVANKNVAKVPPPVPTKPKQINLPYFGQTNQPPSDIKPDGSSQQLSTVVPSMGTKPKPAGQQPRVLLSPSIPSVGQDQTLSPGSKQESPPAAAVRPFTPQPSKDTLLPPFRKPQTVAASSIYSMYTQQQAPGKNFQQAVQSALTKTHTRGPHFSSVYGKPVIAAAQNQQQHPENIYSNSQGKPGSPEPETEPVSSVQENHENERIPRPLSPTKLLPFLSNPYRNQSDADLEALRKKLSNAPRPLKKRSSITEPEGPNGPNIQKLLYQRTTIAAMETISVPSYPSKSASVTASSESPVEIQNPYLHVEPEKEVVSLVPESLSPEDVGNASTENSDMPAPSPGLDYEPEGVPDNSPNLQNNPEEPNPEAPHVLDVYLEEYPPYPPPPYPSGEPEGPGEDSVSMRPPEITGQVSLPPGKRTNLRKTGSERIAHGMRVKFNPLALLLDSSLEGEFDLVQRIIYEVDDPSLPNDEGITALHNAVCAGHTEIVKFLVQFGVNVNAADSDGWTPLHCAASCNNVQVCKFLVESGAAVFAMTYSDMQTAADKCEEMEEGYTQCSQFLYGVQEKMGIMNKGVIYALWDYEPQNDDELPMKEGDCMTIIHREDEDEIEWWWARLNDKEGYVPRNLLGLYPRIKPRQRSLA
# UniProt Q14693: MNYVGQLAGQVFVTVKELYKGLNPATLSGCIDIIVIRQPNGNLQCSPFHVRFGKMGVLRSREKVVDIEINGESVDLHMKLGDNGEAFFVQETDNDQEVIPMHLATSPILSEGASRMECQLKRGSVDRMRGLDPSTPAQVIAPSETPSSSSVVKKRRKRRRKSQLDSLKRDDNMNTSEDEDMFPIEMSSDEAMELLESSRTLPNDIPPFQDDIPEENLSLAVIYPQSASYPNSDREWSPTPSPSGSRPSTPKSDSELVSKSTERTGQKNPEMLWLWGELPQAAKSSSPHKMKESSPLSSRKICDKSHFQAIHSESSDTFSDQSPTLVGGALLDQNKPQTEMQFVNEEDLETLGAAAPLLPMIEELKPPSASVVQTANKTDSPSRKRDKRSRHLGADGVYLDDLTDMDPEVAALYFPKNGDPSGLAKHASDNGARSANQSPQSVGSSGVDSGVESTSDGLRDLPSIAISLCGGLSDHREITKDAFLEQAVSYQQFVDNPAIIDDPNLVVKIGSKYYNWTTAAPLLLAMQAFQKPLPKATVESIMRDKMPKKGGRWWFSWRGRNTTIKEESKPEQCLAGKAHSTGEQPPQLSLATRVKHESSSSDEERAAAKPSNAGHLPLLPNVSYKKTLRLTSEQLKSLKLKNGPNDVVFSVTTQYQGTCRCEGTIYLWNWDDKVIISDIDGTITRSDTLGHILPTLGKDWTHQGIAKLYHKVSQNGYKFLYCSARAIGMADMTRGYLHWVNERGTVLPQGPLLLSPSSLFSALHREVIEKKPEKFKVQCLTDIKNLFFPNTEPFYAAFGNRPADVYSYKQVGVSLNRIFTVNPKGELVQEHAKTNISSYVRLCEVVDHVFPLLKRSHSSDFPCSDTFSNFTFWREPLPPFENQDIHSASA
# UniProt Q14119: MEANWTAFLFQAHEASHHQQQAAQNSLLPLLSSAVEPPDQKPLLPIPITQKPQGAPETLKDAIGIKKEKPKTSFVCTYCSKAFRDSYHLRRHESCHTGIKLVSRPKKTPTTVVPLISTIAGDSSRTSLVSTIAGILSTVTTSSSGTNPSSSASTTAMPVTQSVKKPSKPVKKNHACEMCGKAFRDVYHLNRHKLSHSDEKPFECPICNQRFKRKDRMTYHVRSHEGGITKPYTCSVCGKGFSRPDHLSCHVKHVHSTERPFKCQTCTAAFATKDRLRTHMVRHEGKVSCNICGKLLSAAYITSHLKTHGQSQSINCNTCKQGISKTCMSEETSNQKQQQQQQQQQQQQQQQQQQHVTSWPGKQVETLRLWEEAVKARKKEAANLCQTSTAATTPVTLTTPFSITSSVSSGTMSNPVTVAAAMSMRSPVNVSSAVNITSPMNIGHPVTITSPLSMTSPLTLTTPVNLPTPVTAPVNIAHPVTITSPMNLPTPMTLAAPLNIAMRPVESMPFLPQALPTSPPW
# UniProt Q13795: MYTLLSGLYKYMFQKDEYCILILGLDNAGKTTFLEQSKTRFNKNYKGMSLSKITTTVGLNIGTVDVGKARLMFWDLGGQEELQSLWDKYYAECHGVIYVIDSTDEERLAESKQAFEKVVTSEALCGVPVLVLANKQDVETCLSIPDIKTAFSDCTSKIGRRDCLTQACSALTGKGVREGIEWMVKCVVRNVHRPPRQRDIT
# UniProt Q14451, whole entry: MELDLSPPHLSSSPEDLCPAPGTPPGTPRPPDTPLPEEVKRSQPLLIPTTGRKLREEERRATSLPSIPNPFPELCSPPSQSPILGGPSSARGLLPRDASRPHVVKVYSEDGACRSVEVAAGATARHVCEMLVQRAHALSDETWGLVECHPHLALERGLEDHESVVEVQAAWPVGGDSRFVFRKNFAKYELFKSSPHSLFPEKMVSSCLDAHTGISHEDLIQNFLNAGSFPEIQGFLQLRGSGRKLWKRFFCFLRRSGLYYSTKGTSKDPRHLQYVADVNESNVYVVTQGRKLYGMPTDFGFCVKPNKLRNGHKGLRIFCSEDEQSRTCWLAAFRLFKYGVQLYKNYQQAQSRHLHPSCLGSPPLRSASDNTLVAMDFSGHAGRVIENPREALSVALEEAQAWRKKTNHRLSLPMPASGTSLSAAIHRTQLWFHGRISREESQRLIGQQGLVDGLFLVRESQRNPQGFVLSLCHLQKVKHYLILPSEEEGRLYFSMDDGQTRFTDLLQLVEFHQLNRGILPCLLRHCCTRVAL
# This is one part of the list. Most values lie at the level of the controls, where differences are scatter.
# Compound: Cc1nc(Nc2ncc(C(=O)Nc3c(C)cccc3Cl)s2)cc(N2CCN(CCO)CC2)n1 [dasatinib]
# Assay: log2 fold change of tryptic peptide abundance, ligand vs vehicle (limited proteolysis) (log2 ratio); higher = more trypsin-susceptible (destabilized)
# Settings: ligand concentration: 5 uM; sample: K562 cleared lysate
row,Target,log2 fold change
1,"PPP2R5C (peptide sequence: EREEAWVKIENLAK, peptide start residue: 425) (UniProt Q13362)",0.349
2,"USP10 (peptide sequence: IAELLENVTLIHKPVSLQPR, peptide start residue: 396) (UniProt Q14694)",0.0873
3,"UniProt Q14444 (peptide sequence: QILGVIDK, peptide start residue: 56)",-0.136
4,"DHX34 (peptide sequence: EHQVVVVAGDTGCGK, peptide start residue: 177) (UniProt Q14147)",0.618
5,"RCN2 (peptide sequence: QLHDDYFYHDEL, peptide start residue: 306) (UniProt Q14257)",-0.0599
6,"SMC1A (peptide sequence: RIDEINK, peptide start residue: 469) (UniProt Q14683)",0.182
7,"UniProt Q14964 (peptide sequence: LQLWDTAGQER, peptide start residue: 64)",0.0549
8,"BLMH (peptide sequence: AQHVFQHAVPQEGKPITNQK, peptide start residue: 49) (UniProt Q13867)",0.221
9,"UniProt Q14593 (peptide sequence: GPPSVAPLPAGIGR, peptide start residue: 7)",0.0142
10,"ADAM9 (peptide sequence: NQANPSRQPGSVPR, peptide start residue: 742) (UniProt Q13443)",-0.858
11,"PDIA5 (peptide sequence: FHISEFPTLK, peptide start residue: 347) (UniProt Q14554)",0.0664
12,"SCRIB (peptide sequence: GSTPYKGDDEGIFISR, peptide start residue: 747) (UniProt Q14160)",-0.533
13,"TRAF3 (peptide sequence: HDQMLSVHDIR, peptide start residue: 388) (UniProt Q13114)",0.504
14,"GAB1 (peptide sequence: GDKQVEYLDLDLDSGK, peptide start residue: 621) (UniProt Q13480)",-0.564
15,"URB2 (peptide sequence: AGPEGIEPR, peptide start residue: 859) (UniProt Q14146)",0.165
16,"TP53BP2 (peptide sequence: KVRPFSMFDAVDQSNAPPSFGTLR, peptide start residue: 453) (UniProt Q13625)",0.324
17,"NFYC (peptide sequence: VSELTGEAEPR, peptide start residue: 324) (UniProt Q13952)",-0.162
18,"SLMAP (peptide sequence: DVQKEYEK, peptide start residue: 749) (UniProt Q14BN4)",0.728
19,"LPIN1 (peptide sequence: LCEVVDHVFPLLK, peptide start residue: 842) (UniProt Q14693)",-0.509
20,"GNL2 (peptide sequence: FQEEMDTVMKDPYKVVMK, peptide start residue: 95) (UniProt Q13823)",-0.16
21,"TCOF1 (peptide sequence: GSLGSQGAKDEPEEELQK, peptide start residue: 1406) (UniProt Q13428)",-0.152
22,"VEZF1 (peptide sequence: TCMSEETSNQK, peptide start residue: 326) (UniProt Q14119)",0.718
23,"ARFRP1 (peptide sequence: RDCLTQACSALTGK, peptide start residue: 161) (UniProt Q13795)",0.543
24,"CHD4 (peptide sequence: HDYWLLAGIINHGYAR, peptide start residue: 1733) (UniProt Q14839)",-0.91
25,"NNT (peptide sequence: NIPQGAPVK, peptide start residue: 443) (UniProt Q13423)",-0.478
26,"UniProt Q14451 (peptide sequence: HLHPSCLGSPPLR, peptide start residue: 353)",-0.96
27,"FLOT2 (peptide sequence: QVLLAQAEAEKIR, peptide start residue: 308) (UniProt Q14254)",0.301
28,"SQLE (peptide sequence: ALLSSGAVLYK, peptide start residue: 546) (UniProt Q14534)",-0.194

# Laid out differently: results already given
row	Target	log2 fold change
10	ADAM9 (peptide sequence: NQANPSRQPGSVPR, peptide start residue: 742) (UniProt Q13443)	-0.858
16	TP53BP2 (peptide sequence: KVRPFSMFDAVDQSNAPPSFGTLR, peptide start residue: 453) (UniProt Q13625)	0.324
